Experimental data as given in PMC8315024.
No constants are given. Whether binding was seen depends on the method and setting. In cells and extracts the contact can be indirect. Some entries that bind do so weakly or less than the wild type.

Protein sequences, listed by entry. Tags and fused reporters are not part of them. Residues count along the entry.
UniProt Q04206: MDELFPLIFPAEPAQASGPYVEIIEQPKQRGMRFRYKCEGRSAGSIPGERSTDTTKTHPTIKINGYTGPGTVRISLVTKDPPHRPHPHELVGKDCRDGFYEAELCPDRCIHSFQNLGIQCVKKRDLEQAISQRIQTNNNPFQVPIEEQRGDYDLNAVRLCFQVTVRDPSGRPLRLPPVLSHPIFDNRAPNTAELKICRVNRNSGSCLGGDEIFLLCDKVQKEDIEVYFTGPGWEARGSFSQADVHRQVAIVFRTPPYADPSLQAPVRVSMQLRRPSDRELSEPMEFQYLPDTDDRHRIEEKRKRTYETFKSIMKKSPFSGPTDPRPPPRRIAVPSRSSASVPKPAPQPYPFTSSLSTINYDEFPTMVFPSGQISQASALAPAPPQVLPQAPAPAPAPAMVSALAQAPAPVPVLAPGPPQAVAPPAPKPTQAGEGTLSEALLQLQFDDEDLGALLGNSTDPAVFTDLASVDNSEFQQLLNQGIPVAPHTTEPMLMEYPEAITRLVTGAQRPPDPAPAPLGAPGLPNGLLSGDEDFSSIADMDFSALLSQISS
UniProt Q02505, residues 16-3323: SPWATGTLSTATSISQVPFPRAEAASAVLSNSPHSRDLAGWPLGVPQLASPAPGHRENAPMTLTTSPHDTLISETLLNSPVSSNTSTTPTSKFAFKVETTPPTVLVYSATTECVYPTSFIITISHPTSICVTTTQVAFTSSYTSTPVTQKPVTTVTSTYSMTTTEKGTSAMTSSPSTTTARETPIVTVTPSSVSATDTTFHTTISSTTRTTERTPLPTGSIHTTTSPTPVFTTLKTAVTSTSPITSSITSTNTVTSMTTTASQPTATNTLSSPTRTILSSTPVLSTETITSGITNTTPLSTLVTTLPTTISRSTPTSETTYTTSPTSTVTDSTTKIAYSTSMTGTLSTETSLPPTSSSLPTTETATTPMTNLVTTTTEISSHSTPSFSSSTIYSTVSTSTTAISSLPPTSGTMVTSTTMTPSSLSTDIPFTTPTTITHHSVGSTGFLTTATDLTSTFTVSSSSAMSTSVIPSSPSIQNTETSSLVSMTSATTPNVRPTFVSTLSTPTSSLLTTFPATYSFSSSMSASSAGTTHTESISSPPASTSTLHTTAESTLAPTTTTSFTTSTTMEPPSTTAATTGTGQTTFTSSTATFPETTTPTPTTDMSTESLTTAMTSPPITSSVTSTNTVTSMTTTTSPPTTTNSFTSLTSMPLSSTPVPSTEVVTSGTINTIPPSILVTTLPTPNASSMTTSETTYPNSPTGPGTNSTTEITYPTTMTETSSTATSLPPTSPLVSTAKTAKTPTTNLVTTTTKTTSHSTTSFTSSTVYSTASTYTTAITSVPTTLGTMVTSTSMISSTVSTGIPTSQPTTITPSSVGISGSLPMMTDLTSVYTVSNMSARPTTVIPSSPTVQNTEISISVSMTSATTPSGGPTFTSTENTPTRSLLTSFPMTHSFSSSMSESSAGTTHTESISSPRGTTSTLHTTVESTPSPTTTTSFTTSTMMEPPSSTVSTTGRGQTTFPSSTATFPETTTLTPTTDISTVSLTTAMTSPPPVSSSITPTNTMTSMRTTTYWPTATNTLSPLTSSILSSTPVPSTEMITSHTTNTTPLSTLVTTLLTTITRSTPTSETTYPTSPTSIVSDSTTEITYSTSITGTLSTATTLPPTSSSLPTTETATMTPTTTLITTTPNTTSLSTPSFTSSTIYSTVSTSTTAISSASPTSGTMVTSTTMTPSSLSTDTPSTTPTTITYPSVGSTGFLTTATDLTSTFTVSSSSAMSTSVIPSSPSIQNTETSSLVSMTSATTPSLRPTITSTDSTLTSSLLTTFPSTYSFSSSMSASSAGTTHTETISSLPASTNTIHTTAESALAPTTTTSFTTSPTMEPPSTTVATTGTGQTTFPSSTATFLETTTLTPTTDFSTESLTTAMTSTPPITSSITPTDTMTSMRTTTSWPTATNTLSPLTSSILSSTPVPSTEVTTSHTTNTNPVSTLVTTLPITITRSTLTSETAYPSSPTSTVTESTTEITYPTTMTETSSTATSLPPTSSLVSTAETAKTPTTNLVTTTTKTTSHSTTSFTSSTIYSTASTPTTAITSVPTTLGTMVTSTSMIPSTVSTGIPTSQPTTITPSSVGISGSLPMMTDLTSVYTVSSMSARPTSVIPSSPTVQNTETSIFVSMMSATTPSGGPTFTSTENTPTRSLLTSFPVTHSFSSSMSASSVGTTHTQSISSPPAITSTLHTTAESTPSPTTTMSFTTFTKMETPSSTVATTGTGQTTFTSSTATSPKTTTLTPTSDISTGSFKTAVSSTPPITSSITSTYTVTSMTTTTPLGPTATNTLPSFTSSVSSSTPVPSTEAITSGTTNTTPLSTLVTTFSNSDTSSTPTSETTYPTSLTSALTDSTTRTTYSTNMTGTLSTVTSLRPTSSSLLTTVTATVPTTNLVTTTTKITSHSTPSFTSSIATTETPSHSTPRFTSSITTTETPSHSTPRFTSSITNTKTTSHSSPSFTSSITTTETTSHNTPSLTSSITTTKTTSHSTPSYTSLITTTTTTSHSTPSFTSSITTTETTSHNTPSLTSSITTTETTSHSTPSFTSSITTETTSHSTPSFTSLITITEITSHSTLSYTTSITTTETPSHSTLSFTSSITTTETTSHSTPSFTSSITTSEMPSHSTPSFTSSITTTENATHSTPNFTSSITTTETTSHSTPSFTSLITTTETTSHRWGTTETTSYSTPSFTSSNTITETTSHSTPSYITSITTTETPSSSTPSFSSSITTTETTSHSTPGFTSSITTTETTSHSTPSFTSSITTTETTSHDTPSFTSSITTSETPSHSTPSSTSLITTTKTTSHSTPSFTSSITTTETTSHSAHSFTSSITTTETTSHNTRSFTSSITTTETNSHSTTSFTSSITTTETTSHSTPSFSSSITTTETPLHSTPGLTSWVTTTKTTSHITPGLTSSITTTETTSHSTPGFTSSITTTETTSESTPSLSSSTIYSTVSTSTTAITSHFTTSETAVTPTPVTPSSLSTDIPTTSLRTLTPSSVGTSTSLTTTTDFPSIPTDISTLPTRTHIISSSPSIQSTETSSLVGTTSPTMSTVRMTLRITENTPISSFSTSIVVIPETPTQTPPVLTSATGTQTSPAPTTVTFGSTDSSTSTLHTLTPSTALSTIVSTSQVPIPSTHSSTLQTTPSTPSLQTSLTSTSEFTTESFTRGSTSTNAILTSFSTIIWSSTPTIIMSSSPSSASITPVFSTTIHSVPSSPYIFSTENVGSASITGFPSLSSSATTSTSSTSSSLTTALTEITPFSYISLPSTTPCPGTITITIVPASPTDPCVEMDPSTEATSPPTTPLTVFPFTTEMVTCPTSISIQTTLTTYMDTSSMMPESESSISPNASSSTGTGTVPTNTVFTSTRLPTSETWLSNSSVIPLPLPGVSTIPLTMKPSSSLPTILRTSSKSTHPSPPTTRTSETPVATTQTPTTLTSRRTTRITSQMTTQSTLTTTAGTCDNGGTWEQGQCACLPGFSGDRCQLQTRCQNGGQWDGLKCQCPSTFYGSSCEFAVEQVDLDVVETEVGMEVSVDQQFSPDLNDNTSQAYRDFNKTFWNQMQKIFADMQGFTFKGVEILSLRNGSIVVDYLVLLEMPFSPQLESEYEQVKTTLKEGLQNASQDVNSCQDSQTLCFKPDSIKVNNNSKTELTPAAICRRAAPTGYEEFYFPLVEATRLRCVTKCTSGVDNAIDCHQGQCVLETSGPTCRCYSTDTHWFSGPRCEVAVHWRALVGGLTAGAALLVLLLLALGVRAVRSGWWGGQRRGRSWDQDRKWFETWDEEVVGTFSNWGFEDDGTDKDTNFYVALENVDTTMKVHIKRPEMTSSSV

Target: RELA, also called P65 (human (endogenous in H1299 and H1975)) (UniProt Q04206)
Assay: co-IP; endogenous proteins in H1299 and H1975 cells; lysis in RIPA buffer with protease and phosphatase inhibitors; BeaverBeads Protein A/G Kit; which protein was precipitated is not told

binding: binds
Substance: Mucin 3A (MUC3A) (from UniProt Q02505 16-3323)
